Measurements from PMC10783502.
No constants are given. Whether binding was seen depends on the method and setting. In cells and extracts the contact can be indirect. A result given as binding can be weak or reduced; the word gives no strength. For part of these data: Tags and fused reporters may be left off the sequences shown.

By UniProt entry, the sequences of proteins in these tests, tags left out. Where a name states a change or a piece, a line headed by the entry shows the natural chain unless it says otherwise.
UniProt Q9ZU66: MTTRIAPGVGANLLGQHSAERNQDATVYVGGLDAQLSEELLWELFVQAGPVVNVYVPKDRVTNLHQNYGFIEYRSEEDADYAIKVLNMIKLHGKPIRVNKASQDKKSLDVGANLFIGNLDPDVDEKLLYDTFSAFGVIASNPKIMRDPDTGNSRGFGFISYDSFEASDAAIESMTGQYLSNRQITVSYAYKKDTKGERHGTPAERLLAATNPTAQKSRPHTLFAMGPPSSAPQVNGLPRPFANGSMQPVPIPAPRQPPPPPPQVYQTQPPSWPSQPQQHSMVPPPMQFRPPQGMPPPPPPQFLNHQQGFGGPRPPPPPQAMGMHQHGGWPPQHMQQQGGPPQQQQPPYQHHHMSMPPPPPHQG
UniProt Q9SP32: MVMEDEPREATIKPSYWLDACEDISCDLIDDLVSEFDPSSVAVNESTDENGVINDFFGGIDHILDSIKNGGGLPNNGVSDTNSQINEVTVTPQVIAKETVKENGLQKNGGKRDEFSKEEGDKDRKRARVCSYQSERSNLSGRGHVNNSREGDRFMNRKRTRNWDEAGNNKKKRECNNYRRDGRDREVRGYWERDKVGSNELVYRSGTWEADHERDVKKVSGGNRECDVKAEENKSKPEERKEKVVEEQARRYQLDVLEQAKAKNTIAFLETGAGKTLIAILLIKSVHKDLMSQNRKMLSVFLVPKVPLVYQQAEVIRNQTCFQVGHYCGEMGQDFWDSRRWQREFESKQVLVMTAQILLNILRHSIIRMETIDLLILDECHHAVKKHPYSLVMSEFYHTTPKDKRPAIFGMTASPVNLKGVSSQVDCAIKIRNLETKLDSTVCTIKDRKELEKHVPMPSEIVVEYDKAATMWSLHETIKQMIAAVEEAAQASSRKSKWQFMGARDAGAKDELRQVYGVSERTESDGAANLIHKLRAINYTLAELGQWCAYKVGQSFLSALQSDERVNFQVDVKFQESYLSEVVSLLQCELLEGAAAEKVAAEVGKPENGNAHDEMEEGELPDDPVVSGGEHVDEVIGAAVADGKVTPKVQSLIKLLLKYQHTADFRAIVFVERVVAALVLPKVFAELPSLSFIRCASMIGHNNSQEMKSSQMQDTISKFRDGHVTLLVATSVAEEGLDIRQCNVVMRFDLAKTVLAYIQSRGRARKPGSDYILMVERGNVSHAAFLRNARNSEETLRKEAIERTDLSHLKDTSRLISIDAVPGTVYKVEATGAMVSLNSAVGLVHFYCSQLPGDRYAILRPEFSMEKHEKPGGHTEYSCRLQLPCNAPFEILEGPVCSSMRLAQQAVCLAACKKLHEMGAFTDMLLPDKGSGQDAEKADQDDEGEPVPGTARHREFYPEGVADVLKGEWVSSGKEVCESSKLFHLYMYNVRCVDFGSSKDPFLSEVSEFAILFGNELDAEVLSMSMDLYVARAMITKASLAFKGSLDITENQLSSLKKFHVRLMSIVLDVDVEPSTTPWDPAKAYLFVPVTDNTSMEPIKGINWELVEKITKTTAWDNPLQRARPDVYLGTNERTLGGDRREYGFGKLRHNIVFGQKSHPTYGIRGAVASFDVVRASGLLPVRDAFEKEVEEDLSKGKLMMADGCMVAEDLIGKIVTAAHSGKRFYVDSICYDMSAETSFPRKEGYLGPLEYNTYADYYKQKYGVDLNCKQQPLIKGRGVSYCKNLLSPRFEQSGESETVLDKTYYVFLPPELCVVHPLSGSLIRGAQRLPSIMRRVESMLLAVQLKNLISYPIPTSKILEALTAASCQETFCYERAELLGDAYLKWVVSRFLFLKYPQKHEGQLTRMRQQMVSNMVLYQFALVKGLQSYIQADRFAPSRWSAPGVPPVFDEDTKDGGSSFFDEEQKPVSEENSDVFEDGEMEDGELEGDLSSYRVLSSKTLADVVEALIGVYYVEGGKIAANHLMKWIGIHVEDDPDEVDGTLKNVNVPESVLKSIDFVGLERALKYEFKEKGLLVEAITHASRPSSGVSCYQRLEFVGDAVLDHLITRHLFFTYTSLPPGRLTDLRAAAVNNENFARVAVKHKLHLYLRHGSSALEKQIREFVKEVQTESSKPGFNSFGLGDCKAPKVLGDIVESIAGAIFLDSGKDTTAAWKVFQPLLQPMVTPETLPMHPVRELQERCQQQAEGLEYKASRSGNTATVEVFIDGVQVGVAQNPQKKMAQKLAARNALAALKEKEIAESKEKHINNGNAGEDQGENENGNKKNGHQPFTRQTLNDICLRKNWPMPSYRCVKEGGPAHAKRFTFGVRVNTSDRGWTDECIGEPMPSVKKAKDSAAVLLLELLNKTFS

B1: nVenus-CDC5 (protein, UniProt P92948 1-844)
chain: MRIMIKGGVWKNTEDEILKAAVMKYGKNQWARISSLLVRKSAKQCKARWYEWLDPSIKKTEWTREEDEKLLHLAKLLPTQWRTIAPIVGRTPSQCLERYEKLLDAACTKDENYDAADDPRKLRPGEIDPNPEAKPARPDPVDMDEDEKEMLSEARARLANTRGKKAKRKAREKQLEEARRLASLQKRRELKAAGIDGRHRKRKRKGIDYNAEIPFEKRAPAGFYDTADEDRPADQVKFPTTIEELEGKRRADVEAHLRKQDVARNKIAQRQDAPAAILQANKLNDPEVVRKRSKLMLPPPQISDHELEEIAKMGYASDLLAENEELTEGSAATRALLANYSQTPRQGMTPMRTPQRTPAGKGDAIMMEAENLARLRDSQTPLLGGENPELHPSDFTGVTPRKKEIQTPNPMLTPSMTPGGAGLTPRIGLTPSRDGSSFSMTPKGTPFRDELHINEDMDMHESAKLERQRREEARRSLRSGLTGLPQPKNEYQIVAQPPPEESEEPEEKIEEDMSDRIAREKAEEEARQQALLKKRSKVLQRDLPRPPAASLAVIRNSLLSADGDKSSVVPPTPIEVADKMVREELLQLLEHDNAKYPLDDKAEKKKGAKNRTNRSASQVLAIDDFDENELQEADKMIKEEGKFLCVSMGHENKTLDDFVEAHNTCVNDLMYFPTRSAYELSSVAGNADKVAAFQEEMENVRKKMEEDEKKAEHMKAKYKTYTKGHERRAETVWTQIEATLKQAEIGGTEVECFKALKRQEEMAASFRKKNLQEEVIKQKETESKLQTRYGNMLAMVEKAEEIMVGFRAQALKKQEDVEDSHKLKEAKLATGEEEDIAIAMEASA
B2: nVenus-HYL1 (protein, UniProt O04492 1-419)
chain: MTSTDVSSGVSNCYVFKSRLQEYAQKYKLPTPVYEIVKEGPSHKSLFQSTVILDGVRYNSLPGFFNRKAAEQSAAEVALRELAKSSELSQCVSQPVHETGLCKNLLQEYAQKMNYAIPLYQCQKVETLGRVTQFTCTVEIGGIKYTGAATRTKKDAEISAGRTALLAIQSDTKNNLANYNTQLTVLPCEKKTIQAAIPLKETVKTLKARKAQFKKKAQKGKRTVAKNPEDIIIPPQPTDHCQNDQSEKIETTPNLEPSSCMNGLKEAAFGSVETEKIETTPNLEPPSCMNGLKEAAFGSVETEKIETTPNLEPPSCMNGLKEAAFGSVETEKIETTPNLEPSSCMNGLKEAAFGSVETEKIETTPNLEPPSCMNGLKEAAFGSVETEKIETTPNLESSSCMSGLKEAAFGSVETEASHA
B3: nVenus-AGO1 (protein, UniProt O04379 1-1048)
chain: MVRKRRTDAPSEGGEGSGSREAGPVSGGGRGSQRGGFQQGGGQHQGGRGYTPQPQQGGRGGRGYGQPPQQQQQYGGPQEYQGRGRGGPPHQGGRGGYGGGRGGGPSSGPPQRQSVPELHQATSPTYQAVSSQPTLSEVSPTQVPEPTVLAQQFEQLSVEQGAPSQAIQPIPSSSKAFKFPMRPGKGQSGKRCIVKANHFFAELPDKDLHHYDVTITPEVTSRGVNRAVMKQLVDNYRDSHLGSRLPAYDGRKSLYTAGPLPFNSKEFRINLLDEEVGAGGQRREREFKVVIKLVARADLHHLGMFLEGKQSDAPQEALQVLDIVLRELPTSRYIPVGRSFYSPDIGKKQSLGDGLESWRGFYQSIRPTQMGLSLNIDMSSTAFIEANPVIQFVCDLLNRDISSRPLSDADRVKIKKALRGVKVEVTHRGNMRRKYRISGLTAVATRELTFPVDERNTQKSVVEYFHETYGFRIQHTQLPCLQVGNSNRPNYLPMEVCKIVEGQRYSKRLNERQITALLKVTCQRPIDREKDILQTVQLNDYAKDNYAQEFGIKISTSLASVEARILPPPWLKYHESGREGTCLPQVGQWNMMNKKMINGGTVNNWICINFSRQVQDNLARTFCQELAQMCYVSGMAFNPEPVLPPVSARPEQVEKVLKTRYHDATSKLSQGKEIDLLIVILPDNNGSLYGDLKRICETELGIVSQCCLTKHVFKMSKQYMANVALKINVKVGGRNTVLVDALSRRIPLVSDRPTIIFGADVTHPHPGEDSSPSIAAVVASQDWPEITKYAGLVCAQAHRQELIQDLFKEWKDPQKGVVTGGMIKELLIAFRRSTGHKPLRIIFYRDGVSEGQFYQVLLYELDAIRKACASLEAGYQPPVTFVVVQKRHHTRLFAQNHNDRHSVDRSGNILPGTVVDSKICHPTEFDFYLCSHAGIQGTSRPAHYHVLWDENNFTADGLQSLTNNLCYTYARCTRSVSIVPPAYYAHLAAFRARFYMEPETSDSGSMASGSMARGGGMAGRSTRGPNVNAAVRPLPALKENVKRVMFYC
B4: nVenus-SE (protein, UniProt Q9ZVD0 1-720)
chain: MADVNLPPSDSVDNRLPEKSTSSSPPPPPPSSSLPQQEQEQDQQQLPLRRERDSRERRDERDIERPPPNRRERDRSPLPPPRRDYKRRPSLSPPPPYRDRRHSPPQRRSPPQKRYRRDDNGYDGRRGSPRGGYGPPDRRFGYDHGGGYDREMGGRPGYGDERPHGRFMGRYQDWEGGRGGYGDASNSGNPQRDGLMSYKQFIQELEDDILPSEAERRYQEYKSEYITTQKRAFFNTHKEEDWLKNKYHPTNLLSVIERRNDLAQKVAKDFLLDLQSGTLDLGPAVTALNKSGRTSEPNSEDEAAGVGKRKRHGMGGAKENELLSAAPKAPSFTSDPKRILTDVEQTQALVRKLDSEKKIEENVLQGSETEKSGREKLHSGSTGPVVIIRGLTSVKGLEGVELLDTLVTYLWRVHGLDYYGKVETNEAKGLRHVRAEGKVSDAKGDENESKFDSHWQERLKGQDPLEVMAAKEKIDAAATEALDPHVRKIRDEKYGWKYGCGAKGCTKLFHAAEFVYKHLKLKHTELVTELTTKVREELYFQNYMNDPNAPGGQPATQQSGPRDRPIRRKPSMENRLRDDRGGRRERDGRANGNDRNDRSEDQQRGDNDGGNPGEVGYDAFGGQGGVHVPPFLSDINPPPMLMPVPGAGPLGPFVPAPPEVAMQMFRDPSGPNPPFEGSGRGGPAPFLLSPAFRQDPRRLRSYQDLDAPEEEVTVIDYRSL
B5: MYC-SE (protein, UniProt Q9ZVD0 1-720)
chain: B4 chain

target: cCFP-JANUS (Arabidopsis) (UniProt Q9ZU66); experiment: split reporter; BiFC: cCFP-JANUS co-infiltrated with nVenus fusions in N. benthamiana leaves; YFP signal by confocal microscopy after 48 h

Molecule	binding
nVenus-DCL1 (from UniProt Q9SP32 1-1909)	binds
B1	binds
B2	binds weakly
B3	binds weakly
B4	binds

target: JANUS-FLAG (Arabidopsis); experiment: co-IP; transient co-expression in N. benthamiana (35S promoter); leaf extract in 50 mM Tris-HCl 8.0, 150 mM NaCl, 5% glycerol, 5% Triton X-100, 1 mM EDTA; IP with anti-FLAG (JANUS-FLAG + MYC-SE) or anti-GFP (GFP-DCL1 + JANUS-FLAG; GFP-tagged JANUS fragments + MYC-SE) on protein G agarose beads; western blot

Molecule	binding
B5	binds
